# According to the supplement of paper PMC12067093, “Discovery and optimisation of a covalent ligand for TRIM25 and its application to targeted protein ubiquitination” (Chemical Science, 2025):
# Protein sequences, listed by entry. Tags and fused reporters are not part of them. Lines headed by an entry give the natural chain unless they say otherwise; changes in a name come on top.
# UniProt Q8TB52: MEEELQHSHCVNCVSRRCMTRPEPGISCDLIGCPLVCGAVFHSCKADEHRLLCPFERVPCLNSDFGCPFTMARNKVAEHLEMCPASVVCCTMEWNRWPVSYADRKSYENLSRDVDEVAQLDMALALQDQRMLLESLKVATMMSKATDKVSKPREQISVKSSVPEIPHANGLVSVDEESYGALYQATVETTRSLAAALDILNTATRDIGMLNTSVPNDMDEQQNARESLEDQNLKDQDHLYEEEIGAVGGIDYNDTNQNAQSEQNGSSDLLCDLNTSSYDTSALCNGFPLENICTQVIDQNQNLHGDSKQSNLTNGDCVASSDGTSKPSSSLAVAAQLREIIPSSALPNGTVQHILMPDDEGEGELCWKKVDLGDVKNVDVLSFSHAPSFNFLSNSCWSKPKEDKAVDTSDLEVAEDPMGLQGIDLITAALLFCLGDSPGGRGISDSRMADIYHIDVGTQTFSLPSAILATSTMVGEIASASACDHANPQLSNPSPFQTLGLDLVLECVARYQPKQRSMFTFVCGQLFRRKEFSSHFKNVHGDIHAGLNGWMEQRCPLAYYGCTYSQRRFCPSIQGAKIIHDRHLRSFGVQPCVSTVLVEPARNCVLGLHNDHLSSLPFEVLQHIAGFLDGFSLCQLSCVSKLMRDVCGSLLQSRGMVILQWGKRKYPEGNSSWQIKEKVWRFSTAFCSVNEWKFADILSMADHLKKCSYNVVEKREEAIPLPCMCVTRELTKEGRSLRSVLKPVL
# UniProt Q5JSP0: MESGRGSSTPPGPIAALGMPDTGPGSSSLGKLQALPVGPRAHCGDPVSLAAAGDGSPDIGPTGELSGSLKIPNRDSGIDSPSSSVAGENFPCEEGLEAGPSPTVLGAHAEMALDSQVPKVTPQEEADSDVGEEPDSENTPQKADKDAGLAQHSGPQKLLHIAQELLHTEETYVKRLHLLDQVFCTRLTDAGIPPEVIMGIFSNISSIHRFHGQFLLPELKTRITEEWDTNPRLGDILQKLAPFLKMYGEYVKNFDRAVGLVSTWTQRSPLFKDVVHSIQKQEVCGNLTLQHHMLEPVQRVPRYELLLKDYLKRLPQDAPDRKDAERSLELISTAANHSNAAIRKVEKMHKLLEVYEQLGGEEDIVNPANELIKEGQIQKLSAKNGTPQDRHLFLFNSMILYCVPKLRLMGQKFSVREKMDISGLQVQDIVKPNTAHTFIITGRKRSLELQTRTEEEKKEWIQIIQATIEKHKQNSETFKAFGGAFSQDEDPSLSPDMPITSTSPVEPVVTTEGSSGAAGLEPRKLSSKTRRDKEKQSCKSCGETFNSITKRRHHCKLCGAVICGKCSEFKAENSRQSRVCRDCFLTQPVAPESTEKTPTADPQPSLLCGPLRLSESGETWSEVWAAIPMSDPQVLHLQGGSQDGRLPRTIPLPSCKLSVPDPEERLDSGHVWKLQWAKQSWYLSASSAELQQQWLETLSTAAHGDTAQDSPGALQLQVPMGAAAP
# UniProt P12318: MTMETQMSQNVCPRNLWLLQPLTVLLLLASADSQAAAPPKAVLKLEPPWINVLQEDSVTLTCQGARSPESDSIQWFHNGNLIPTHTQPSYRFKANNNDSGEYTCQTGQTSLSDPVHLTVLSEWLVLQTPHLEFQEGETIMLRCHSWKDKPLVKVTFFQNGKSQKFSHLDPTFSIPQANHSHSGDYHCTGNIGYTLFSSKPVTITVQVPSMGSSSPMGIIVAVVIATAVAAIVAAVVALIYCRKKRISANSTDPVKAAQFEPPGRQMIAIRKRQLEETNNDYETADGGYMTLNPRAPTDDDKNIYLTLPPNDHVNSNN
# UniProt Q9Y324: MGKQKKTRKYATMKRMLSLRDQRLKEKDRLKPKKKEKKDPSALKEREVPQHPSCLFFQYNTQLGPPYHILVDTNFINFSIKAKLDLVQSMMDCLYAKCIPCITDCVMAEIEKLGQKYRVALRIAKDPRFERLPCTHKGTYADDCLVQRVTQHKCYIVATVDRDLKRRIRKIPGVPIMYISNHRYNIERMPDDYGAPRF
# UniProt Q6PIJ6: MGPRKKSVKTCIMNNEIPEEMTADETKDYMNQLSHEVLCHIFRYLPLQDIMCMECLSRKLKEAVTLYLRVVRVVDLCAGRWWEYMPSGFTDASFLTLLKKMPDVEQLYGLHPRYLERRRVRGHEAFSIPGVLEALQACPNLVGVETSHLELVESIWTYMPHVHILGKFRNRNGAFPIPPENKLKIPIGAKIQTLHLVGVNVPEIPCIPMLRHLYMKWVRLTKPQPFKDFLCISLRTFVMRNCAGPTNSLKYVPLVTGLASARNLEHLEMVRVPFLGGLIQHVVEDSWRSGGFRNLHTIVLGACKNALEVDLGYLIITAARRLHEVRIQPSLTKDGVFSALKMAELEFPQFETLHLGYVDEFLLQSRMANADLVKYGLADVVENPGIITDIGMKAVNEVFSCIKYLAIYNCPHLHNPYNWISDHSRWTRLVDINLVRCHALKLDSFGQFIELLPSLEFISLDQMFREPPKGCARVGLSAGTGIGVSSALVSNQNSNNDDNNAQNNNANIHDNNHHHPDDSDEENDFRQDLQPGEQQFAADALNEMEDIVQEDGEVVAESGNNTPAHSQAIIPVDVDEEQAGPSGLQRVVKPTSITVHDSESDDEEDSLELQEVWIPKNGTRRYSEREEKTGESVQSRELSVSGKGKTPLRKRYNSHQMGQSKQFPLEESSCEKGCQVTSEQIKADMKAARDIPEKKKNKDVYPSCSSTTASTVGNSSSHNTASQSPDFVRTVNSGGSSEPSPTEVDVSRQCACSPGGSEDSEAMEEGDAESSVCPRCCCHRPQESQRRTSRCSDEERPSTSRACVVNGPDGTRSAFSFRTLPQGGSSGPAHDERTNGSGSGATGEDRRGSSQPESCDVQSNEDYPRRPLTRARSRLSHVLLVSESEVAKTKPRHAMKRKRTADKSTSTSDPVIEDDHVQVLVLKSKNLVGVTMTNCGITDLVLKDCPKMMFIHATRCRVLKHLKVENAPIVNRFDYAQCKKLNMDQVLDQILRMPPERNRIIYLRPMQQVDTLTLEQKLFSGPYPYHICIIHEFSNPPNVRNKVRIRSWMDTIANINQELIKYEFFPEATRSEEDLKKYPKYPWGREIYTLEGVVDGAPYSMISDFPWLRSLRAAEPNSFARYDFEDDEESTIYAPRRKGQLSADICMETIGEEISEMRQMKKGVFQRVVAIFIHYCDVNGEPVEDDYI
# UniProt P22087: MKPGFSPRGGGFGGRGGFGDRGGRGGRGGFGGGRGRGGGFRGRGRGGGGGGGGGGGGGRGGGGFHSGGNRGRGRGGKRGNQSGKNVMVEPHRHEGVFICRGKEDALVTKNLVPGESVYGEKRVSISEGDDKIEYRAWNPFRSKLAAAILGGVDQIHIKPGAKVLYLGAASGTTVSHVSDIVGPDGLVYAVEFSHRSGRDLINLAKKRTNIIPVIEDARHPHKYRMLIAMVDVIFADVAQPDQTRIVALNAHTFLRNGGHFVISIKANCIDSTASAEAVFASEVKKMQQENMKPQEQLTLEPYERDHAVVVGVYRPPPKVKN
# UniProt Q969U6: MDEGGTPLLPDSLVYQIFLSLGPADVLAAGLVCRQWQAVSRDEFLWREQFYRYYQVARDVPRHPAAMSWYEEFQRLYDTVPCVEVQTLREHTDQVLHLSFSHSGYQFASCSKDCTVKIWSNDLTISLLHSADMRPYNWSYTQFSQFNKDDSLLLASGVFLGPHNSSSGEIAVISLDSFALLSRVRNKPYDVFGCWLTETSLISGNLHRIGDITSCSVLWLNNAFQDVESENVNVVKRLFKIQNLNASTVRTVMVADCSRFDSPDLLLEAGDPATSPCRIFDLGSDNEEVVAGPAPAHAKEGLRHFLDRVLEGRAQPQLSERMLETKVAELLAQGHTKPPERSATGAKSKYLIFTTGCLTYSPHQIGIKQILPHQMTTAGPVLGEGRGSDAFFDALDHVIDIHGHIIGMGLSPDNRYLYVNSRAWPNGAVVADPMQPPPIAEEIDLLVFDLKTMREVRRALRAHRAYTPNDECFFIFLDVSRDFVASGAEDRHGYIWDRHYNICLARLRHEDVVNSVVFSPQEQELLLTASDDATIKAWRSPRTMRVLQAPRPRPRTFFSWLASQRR
# UniProt Q9Y285: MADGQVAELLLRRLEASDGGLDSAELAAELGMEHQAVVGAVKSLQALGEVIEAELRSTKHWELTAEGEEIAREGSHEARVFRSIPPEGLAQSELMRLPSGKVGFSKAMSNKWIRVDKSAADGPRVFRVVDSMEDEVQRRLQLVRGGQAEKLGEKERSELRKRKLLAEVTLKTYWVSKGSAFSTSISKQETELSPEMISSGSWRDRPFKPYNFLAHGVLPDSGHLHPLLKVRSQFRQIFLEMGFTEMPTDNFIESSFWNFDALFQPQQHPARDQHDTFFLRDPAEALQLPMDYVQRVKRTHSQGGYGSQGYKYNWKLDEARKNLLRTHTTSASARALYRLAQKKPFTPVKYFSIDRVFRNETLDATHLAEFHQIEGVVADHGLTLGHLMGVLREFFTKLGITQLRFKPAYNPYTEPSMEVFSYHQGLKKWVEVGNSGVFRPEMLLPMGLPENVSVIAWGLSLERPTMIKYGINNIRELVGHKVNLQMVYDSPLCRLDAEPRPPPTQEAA
# UniProt Q13642: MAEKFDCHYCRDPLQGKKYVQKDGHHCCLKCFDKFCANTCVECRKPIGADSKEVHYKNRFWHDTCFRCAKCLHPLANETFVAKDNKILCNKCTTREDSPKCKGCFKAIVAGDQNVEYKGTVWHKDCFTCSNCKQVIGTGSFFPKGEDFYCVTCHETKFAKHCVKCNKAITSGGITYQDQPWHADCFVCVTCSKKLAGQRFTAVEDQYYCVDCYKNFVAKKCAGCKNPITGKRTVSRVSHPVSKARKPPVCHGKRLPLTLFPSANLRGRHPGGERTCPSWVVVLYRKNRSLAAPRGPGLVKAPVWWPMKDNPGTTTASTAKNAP
# UniProt Q5HYJ3: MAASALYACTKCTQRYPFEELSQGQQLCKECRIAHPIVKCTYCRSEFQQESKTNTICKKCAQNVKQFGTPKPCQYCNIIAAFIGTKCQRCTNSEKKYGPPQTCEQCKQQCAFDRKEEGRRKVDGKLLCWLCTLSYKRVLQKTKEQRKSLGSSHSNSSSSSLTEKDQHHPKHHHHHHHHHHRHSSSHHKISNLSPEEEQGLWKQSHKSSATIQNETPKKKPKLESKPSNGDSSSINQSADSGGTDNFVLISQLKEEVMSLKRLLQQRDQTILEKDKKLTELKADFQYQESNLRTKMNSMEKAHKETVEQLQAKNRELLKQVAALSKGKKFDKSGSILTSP
# UniProt Q96K12: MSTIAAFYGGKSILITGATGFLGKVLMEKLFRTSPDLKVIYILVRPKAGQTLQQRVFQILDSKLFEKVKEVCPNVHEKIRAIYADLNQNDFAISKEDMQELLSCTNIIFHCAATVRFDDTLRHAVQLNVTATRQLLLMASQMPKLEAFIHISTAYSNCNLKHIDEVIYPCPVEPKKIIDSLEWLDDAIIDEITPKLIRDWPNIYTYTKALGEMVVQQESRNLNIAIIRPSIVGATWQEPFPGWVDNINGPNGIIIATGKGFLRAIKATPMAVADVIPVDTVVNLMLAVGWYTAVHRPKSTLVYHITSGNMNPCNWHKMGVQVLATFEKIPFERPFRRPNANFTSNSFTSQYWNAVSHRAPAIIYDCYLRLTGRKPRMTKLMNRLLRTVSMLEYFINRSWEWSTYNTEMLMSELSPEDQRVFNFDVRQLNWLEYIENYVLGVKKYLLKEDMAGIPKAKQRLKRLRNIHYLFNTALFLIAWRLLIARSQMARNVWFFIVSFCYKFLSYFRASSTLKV
# UniProt P0C2W1: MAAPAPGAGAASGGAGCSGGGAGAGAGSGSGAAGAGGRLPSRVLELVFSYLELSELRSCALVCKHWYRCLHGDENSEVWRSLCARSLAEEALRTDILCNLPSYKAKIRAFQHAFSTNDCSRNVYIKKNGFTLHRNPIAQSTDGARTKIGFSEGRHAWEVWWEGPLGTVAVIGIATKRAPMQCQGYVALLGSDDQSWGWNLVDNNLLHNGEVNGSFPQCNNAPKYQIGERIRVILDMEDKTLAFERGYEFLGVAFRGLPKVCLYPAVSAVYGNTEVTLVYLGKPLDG
# UniProt P22570: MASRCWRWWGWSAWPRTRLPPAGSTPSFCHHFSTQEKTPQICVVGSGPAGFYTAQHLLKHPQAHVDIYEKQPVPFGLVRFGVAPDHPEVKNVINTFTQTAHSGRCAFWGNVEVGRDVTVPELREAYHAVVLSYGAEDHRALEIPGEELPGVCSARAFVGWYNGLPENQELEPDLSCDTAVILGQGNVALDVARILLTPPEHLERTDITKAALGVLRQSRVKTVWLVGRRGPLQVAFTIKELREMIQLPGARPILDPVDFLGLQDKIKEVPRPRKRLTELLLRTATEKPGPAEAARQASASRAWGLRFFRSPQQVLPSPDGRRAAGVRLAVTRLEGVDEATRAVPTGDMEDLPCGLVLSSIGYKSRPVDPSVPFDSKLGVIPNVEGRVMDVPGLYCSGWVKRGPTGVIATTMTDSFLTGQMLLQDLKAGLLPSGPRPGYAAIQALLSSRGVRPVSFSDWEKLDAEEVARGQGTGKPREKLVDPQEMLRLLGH
# The other results are listed elsewhere or left out.
# Compound: Cc1cc(ccc1-c1ccccc1)C(=O)N1CCCN(CC1)C(=O)CCl [compound 10]
# Experiment: probe-labelled cysteine peptide fold change vs DMSO (competition) (log2 fold change); higher = less target engagement (more negative = stronger competition)
# Settings: 10 µM; THP-1; incubation time: 4 h
# 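Note: competitive profiling in live THP-1 cells: cysteine peptides tagged with an iodoacetamide desthiobiotin (IA-DTB) probe, intensity after compound treatment relative to DMSO-treated cells.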
row,Target,probe-labelled cysteine peptide fold change
1,FBXO30_Q8TB52_10_MEEELQHSHCVNCVSR (UniProt Q8TB52),-0.34
2,FASN_P49327_2024_EACPELDYFVVFSSVSCGR (UniProt P49327),0.19
3,FASN_P49327_135_GTHTGVWVGVSGSETSEALSRDPETLVGYSMVGCQR (UniProt P49327),-0.0765
4,FGD3_Q5JSP0_184_LHLLDQVFCTR (UniProt Q5JSP0),0.0176
5,FCGR2A_P12318_62_LEPPWINVLQEDSVTLTCQGAR (UniProt P12318),0.0375
6,FASN_P49327_1992_DGLLENQTPEFFQDVCKPK (UniProt P49327),-0.0563
7,FCF1_Q9Y324_154_CYIVATVDRDLK (UniProt Q9Y324),0.0906
8,FASN_P49327_223_AFDTAGNGYCR (UniProt P49327),-0.0189
9,FAM136A_Q96C01_82_CTMHCNDK (UniProt Q96C01),0.123
10,FBXO38_Q6PIJ6_39_DYMNQLSHEVLCHIFR (UniProt Q6PIJ6),0.0115
11,FAM136A_Q96C01_57_CHVPLAQAQALVTSELEK (UniProt Q96C01),-0.144
12,FBL_P22087_99_NVMVEPHRHEGVFICR (UniProt P22087),-0.0461
13,FBXW5_Q969U6_503_HYNICLAR (UniProt Q969U6),0.12
14,FARSA_Q9Y285_493_VNLQMVYDSPLCR (UniProt Q9Y285),-0.162
15,FHL1_Q13642-1_255_CSVNLANKR (UniProt Q13642),-0.0452
16,FGG_P02679_365_CHAGHLNGVYYQGGTYSK (UniProt P02679),-0.343
17,FAM76B_Q5HYJ3_60_CAQNVK (UniProt Q5HYJ3),0.078
18,FASN_P49327_1558+1564_HAQPTCPGAQLCTVYYASLNFR (UniProt P49327),-0.305
19,FAR2_Q96K12_104_EDMQELLSCTNIIFHCAATVR (UniProt Q96K12),0.212

# Same assay, conditions: 50 µM; THP-1; incubation time: 4 h
row,Target,probe-labelled cysteine peptide fold change
1,FAM208A_Q9UK61_601_SHIDTCLHAYIFRPEVYQLPICK (UniProt Q9UK61),-0.568
2,FAM192A_Q9GZU8_187_NQEPSSCK (UniProt Q9GZU8),-0.474
3,FANCI_Q9NVI1_1025_EDALFCK (UniProt Q9NVI1),0.0448
4,FARSB_Q9NSD9_362_ADIIHACDIVEDAAIAYGYNNIQMTLPK (UniProt Q9NSD9),-0.155
5,FANCD2_Q9BXW9_310_LDLQHCVLPSR (UniProt Q9BXW9),-0.32
6,FDPS_P14324_204_PGVGLDAINDANLLEACIYR (UniProt P14324),0.199
7,FBXO45_P0C2W1_119_AFQHAFSTNDCSR (UniProt P0C2W1),0.171
8,FCHO1_O14526_371_APACSPEAAAAQLR (UniProt O14526),-0.0316
9,FAM208B_Q5VWN6_186_VIPILSTLNCALLETKK (UniProt Q5VWN6),-0.813
10,FASN_P49327_212_LGMLSPEGTCK (UniProt P49327),-0.124
11,FASTKD1_Q53R41_673_SVCLECPEFQIPWFHDR (UniProt Q53R41),-0.256
12,FDXR_P22570_152_ALEIPGEELPGVCSAR (UniProt P22570),0.097
13,FBXW8_Q8N3Y1_214_GAVSELEHVPDTVLCDVHSHDGVVIAGYTSGDVR (UniProt Q8N3Y1),0.415
14,FBXL12_Q9NXK8_310_GLPHCMVIVR (UniProt Q9NXK8),-0.314
15,FAM193B_Q96PV7_766_VGSCAEAGEGSR (UniProt Q96PV7),-0.135
16,FDXR_P22570_105_CAFWGNVEVGR (UniProt P22570),0.0536
17,FBXO30_Q8TB52_10_MEEELQHSHCVNCVSR (UniProt Q8TB52),-0.361
18,FASN_P49327_2024_EACPELDYFVVFSSVSCGR (UniProt P49327),0.126

row,Target,probe-labelled cysteine peptide fold change
1,FASN_P49327_135_GTHTGVWVGVSGSETSEALSRDPETLVGYSMVGCQR (UniProt P49327),0.00188
2,FGD3_Q5JSP0_184_LHLLDQVFCTR (UniProt Q5JSP0),0.345
3,FCGR2A_P12318_62_LEPPWINVLQEDSVTLTCQGAR (UniProt P12318),0.17
4,FASN_P49327_1992_DGLLENQTPEFFQDVCKPK (UniProt P49327),-0.0216
5,FCF1_Q9Y324_154_CYIVATVDRDLK (UniProt Q9Y324),-0.345
6,FASN_P49327_223_AFDTAGNGYCR (UniProt P49327),-0.00636
7,FAM136A_Q96C01_82_CTMHCNDK (UniProt Q96C01),0.101
8,FBXO38_Q6PIJ6_39_DYMNQLSHEVLCHIFR (UniProt Q6PIJ6),-0.111
9,FAM136A_Q96C01_57_CHVPLAQAQALVTSELEK (UniProt Q96C01),-0.276
10,FBL_P22087_99_NVMVEPHRHEGVFICR (UniProt P22087),-0.116
11,FBXW5_Q969U6_503_HYNICLAR (UniProt Q969U6),0.0297
12,FARSA_Q9Y285_493_VNLQMVYDSPLCR (UniProt Q9Y285),0.161
13,FHL1_Q13642-1_255_CSVNLANKR (UniProt Q13642),-0.318
14,FGG_P02679_365_CHAGHLNGVYYQGGTYSK (UniProt P02679),-0.452
15,FAM76B_Q5HYJ3_60_CAQNVK (UniProt Q5HYJ3),-0.271
16,FASN_P49327_1558+1564_HAQPTCPGAQLCTVYYASLNFR (UniProt P49327),-0.774
17,FAR2_Q96K12_104_EDMQELLSCTNIIFHCAATVR (UniProt Q96K12),0.354
